Data on two molecules can be found in patent publication CN114316048A.

These are yes or no findings as the source states them, for the method shown. Some entries that bind do so weakly or less than the wild type.

The target of test [1] is T1, 可溶性B7-H5蛋白标准品(R&D Systems) (human) (UniProt Q9H7M9).
T1 sequence (looked up): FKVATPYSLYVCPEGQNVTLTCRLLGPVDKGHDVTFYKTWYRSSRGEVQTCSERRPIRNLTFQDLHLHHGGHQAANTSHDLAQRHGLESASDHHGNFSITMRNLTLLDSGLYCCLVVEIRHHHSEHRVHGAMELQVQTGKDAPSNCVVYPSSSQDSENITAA
Put plainly: sandwich ELISA, biotinylated B7-H5-7B10 as detection of soluble B7-H5 standard captured by B7-H5-2E5, HRP/TMB, OD450. On the technique in general: An ELISA detects its analyte on a solid surface through an enzyme-linked reagent.

Test [2] addresses T1, 可溶性B7-H5蛋白标准品(R&D Systems) (human). In words: sandwich ELISA, B7-H5-2E5 coated at 1 ug/ml as capture, soluble B7-H5 standard diluted from 2 ng/ml, OD450.

B1: 抗人B7-H5单克隆抗体B7-H5-7B10 (antibody, V domains shown)
VH: EVQLKQSGPGLVAPSQSLSITCTVSGFSLTNHGVQWVRQSPGKGLEWLGVIWGDGNRNYHSALMSRLSINKDNSKSQVFLKLNRLQTDDTATYFCAKERRLGYYGEYDVMDYWGQGTSVTVSS
VL: DIVMTQSHKFMSTSVGDRVTITCKASQGVGTAVAWYQQKPGQSPKLLIYWASTRHTGVPDRFTGSGSGTDFTLTIGNVQSEDLADYFCQQYSSSPFTFGSGTKLEIK
B1: the binding result in test [1] was “binds”.

B2: 抗人B7-H5单克隆抗体B7-H5-2E5 (antibody, V domains shown)
VH: DVKLQESGPGLVKPSQSLSLTCTVTGYSIASDYTWNWIRQFPGNKLEWMGYIDYSGATFYNPSLKSRISIIRDTSKNQFFLQLNSVTTGDTATYYCTRGFYYYGSDYWGQGTTLTVSS
VL: DVLMTQTPLSLPVSLGDQASISCRSSQSIVHNNGNTYLEWYLQKPGQSPKLLIYKVSNRFSGVPDRFSGSGSGTDFTLKINRVEAEDLGVYYCFQGSHVPSTFGGGTKLEIK
Regarding B2, in test [2], the binding entry is given as “binds”.
